Experimental findings from paper PMC7708056 (2020) are described below.

The chains behind the UniProt entries cited, without tags or fusion partners. Residues count along the entry.
UniProt P09012, 2-98 Y31H/Q36R: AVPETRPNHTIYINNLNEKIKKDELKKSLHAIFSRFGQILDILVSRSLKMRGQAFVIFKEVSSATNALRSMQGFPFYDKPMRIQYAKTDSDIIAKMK

The exact form of at least one protein or probe is not confirmed. At least one verdict was read from the data and is not stated in words by the source.

This data set deals with U1A protein (RNA-binding domain, crystallization module) Y31H,Q36R (UniProt P09012). Briefly: X-ray crystal structure. To be noted: NAD+ and Mg2+ bound, RNA:U1A 1:1.2; Complex formation for crystals: 50 mM HEPES pH 7.0, 50 mM NaCl, 5 mM MgCl2, RNA:NAD+ 1:15, on ice; crystals at 16 C in 0.2 M Mg(OAc)2, 0.1 M NaAsO2 pH 6.5, 30% MPD; recombinant protein; residues 2-98; protein details: His10-SUMO N-terminal, cleaved by ULP1.

With “GGCGCAACAUCCCCGCCGGUUGGGCGCAUUGCACUCCGCGCAGUGAACCGGCUGCGCC [17delU1A-D1 (NAD+ riboswitch domain 1 with U1A-binding loop)]”, the binding result is given as “binds”.
